Experimental data as given in US20010039275A1, “Use of 2,4-diaminothiazole derivatives” (priority 2000, published 2001).
Some entries share one result that the patent states for a list of compounds.

Chains of the proteins cited; added tags and fusions are not shown. Lines headed by an entry give the natural chain unless they say otherwise; changes in a name come on top.
UniProt P49841: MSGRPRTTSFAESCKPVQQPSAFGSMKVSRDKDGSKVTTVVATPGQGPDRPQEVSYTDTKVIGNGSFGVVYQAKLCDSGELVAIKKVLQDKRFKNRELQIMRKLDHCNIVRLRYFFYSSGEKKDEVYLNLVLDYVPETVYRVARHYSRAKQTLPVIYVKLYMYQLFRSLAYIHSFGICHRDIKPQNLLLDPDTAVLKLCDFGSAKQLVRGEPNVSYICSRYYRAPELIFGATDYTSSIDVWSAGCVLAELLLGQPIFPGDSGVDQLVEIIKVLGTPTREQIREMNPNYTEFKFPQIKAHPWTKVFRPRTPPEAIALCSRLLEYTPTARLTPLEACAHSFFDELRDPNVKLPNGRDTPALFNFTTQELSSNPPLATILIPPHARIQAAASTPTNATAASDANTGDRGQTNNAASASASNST

Biological target: human GSK-3β (Homo sapiens, UniProt P49841)
Experiment: Assay I: inhibition of GSK-3, 33P-ATP filter plate kinase assay
Assay type: biochemical
Details: 32 μM glycogen synthase derived substrate, 0.1 mM 33P-labeled ATP, 60 min at room temperature

Row | SMILES | IC50
1 | Nc1nc(Nc2ccc(Cl)c(Cl)c2)sc1C(=O)c1cccc(OCc2ccccc2)c1 [Example 53, [4-Amino-2-(3,4-dichlorophenylamino)thiazol-5-yl]-(3-benzyloxyphenyl)methanone] | < 5 µM
2 | Nc1nc(Nc2ccccc2)sc1C(=O)c1ccccc1[N+](=O)[O-] [Example 25, (4-Amino-2-phenylaminothiazol-5-yl)-(2-nitrophenyl)methanone] | < 5 µM
3 | Nc1nc(Nc2ccccc2)sc1C(=O)c1ccc(Cl)c(Cl)c1 [Example 18, (4-Amino-2-phenylaminothiazol-5-yl)-(3,4-dichlorophenyl)methanone] | < 5 µM
4 | Nc1nc(Nc2ccccc2)sc1C(=O)c1ccsc1 [Example 39, (4-Amino-2-phenylaminothiazol-5-yl)thiophen-3-ylmethanone] | < 5 µM
5 | CCCNc1nc(N)c(C(=O)c2cccnc2)s1 [Example 32, (4-Amino-2-propylaminothiazol-5-yl)pyridin-3-yl-methanone] | < 5 µM
6 | Nc1nc(Nc2ccccc2)sc1C(=O)c1cccc([N+](=O)[O-])c1 [Example 26, (4-Amino-2-phenylaminothiazol-5-yl)-(3-nitrophenyl)methanone] | < 5 µM
7 | COCCCNc1nc(N)c(C(=O)c2cccnc2)s1 [Example 50, [4-Amino-2-(3-methoxypropylamino)thiazol-5-yl]pvridin-3-ylmethanone] | < 5 µM
8 | Nc1nc(Nc2ccccc2)sc1-c1ccc([N+](=O)[O-])cc1 [Example 20, 4-Amino-2-phenylamino-5-(4-nitrophenyl)thiazole] | < 5 µM
9 | Nc1nc(Nc2ccccc2)sc1C(=O)c1ccc(-c2ccccc2)cc1 [Example 15, (4-Amino-2-phenylaminothiazol-5-yl)biphenyl-4-ylmethanone] | < 5 µM
10 | COc1cccc(C(=O)c2sc(Nc3ccccc3)nc2N)c1 [Example 23, (4-Amino-2-phenylaminothiazol-5-yl)-(3-methoxyphenyl)methanone] | < 5 µM
11 | COc1ccc(C(=O)c2sc(Nc3ccccc3)nc2N)cc1 [Example 24, (4-Amino-2-phenylaminothiazol-5-yl)-(4-methoxyphenyl)methanone] | < 5 µM
12 | Nc1nc(Nc2ccc(Cl)cc2)sc1C(=O)c1cccc(OCc2ccccc2)c1 [Example 54, [4-Amino-2-(4-chlorophenylamino)thiazol-5-yl]-(3-benzyloxyphenyl)methanone] | < 5 µM
13 | Nc1nc(Nc2ccccc2)sc1C(=O)c1ccc(O)c(O)c1 [Example 29, (4-Amino-2-phenylaminothiazol-5-yl)-(3,4-dihydroxyphenyl)methanone] | < 5 µM
14 | Nc1nc(Nc2ccccc2)sc1C(=O)c1ccc2ccccc2c1 [Example 14, (4-Amino-2-phenylaminothiazol-5-yl)naphthalen-2-ylmethanone] | < 5 µM
15 | Nc1nc(Nc2ccccc2)sc1C(=O)c1cccc(F)c1 [Example 13, (4-Amino-2-phenylaminothiazol-5-yl)-(3-fluorophenyl)methanone] | < 5 µM
16 | Nc1nc(Nc2ccccc2)sc1C(=O)c1cccnc1 [Example 5, (4-Amino-2-phenylaminothiazol-5-yl)pyridin-3-ylmethanone] | < 5 µM
17 | Nc1nc(Nc2ccccc2)sc1C(=O)c1cccs1 [Example 36, (4-Amino-2-phenylaminothiazol-5-yl)thiophen-2-yl-methanone] | < 5 µM

Row | SMILES | IC50
18 | CCNc1nc(N)c(C(=O)c2ccccc2)s1 [Example 58, (4-Amino-2-ethylaminothiazol-5-yl)phenylmethanone] | < 5 µM
19 | Nc1nc(Nc2ccc(Br)cc2)sc1C(=O)C1CC1 [Example 17, [4-Amino-2-(4-bromophenylamino)thiazol-5-yl]cyclopropylmethanone] | < 5 µM
20 | Nc1nc(Nc2ccccc2)sc1C(=O)c1ccc(Cl)s1 [Example 21, (4-Amino-2-phenylaminothiazol-5-yl)-(5-chlorothiophen-2-yl)methanone] | < 5 µM
21 | CC(=O)c1sc(Nc2ccccc2)nc1N [Example 44, 1-(4-Amino-2-phenylaminothiazol-5-yl)ethanone] | < 5 µM
22 | Cc1c(C(=O)c2sc(Nc3ccccc3)nc2N)sc2ccccc12 [Example 19, (4-Amino-2-phenylaminothiazol-5-yl)-(3-methylbenzo[b]thiophen-2-yl) methanone] | < 5 µM
23 | CCOC(=O)CC(C)Nc1nc(N)c(C(=O)c2cccnc2)s1 (stereo not shown) [Example 52, 3-[4-Amino-5-(pyridine-3-carbonyl)thiazoi-2-ylamino]butyric acid ethyl ester] | < 5 µM
24 | Nc1nc(Nc2ccccc2)sc1C(=O)c1ccc(F)cc1 [Example 2, (4-Amino-2-phenylaminothiazol-5-yl)-(4-fluorophenyl)methanone] | < 5 µM
25 | Cc1cc(C(=O)c2sc(Nc3ccccc3)nc2N)ccc1Cl [Example 28, (4-amino-2-phenylaminothiazol-5-yl)-(4-chloro-3-methylphenyl)methanone] | < 5 µM
26 | Nc1nc(Nc2ccccc2)sc1C(=O)c1ccncc1 [Example 34, (4-Amino-2-phenylaminothiazol-5-yl)-pyridin-4-yl-methanone] | < 5 µM
27 | Nc1nc(Nc2ccccc2)sc1C(=O)c1c(F)cccc1F [Example 41, (4-Amino-2-phenylaminothiazol-5-yl)-(2,6-difluorophenyl)methanone] | < 5 µM
28 | Nc1nc(Nc2ccccc2)sc1C(=O)c1ccccc1 [Example 4, (4-Amino-2-phenylaminothiazol-5-yl)phenylmethanone] | < 5 µM
29 | Nc1nc(Nc2cccnc2)sc1C(=O)c1ccccc1 [Example 47, [4-Amino-2-(pyridin-3-ylamino)thiazol-5-yl]phenylmethanone] | < 5 µM
30 | COc1ccccc1C(=O)c1sc(Nc2ccccc2)nc1N [Example 22, (4-Amino-2-phenylaminothiazol-5-yl)-(2-methoxyphenvl)methanone] | < 5 µM
31 | Nc1nc(Nc2ccccc2)sc1C(=O)c1ccc(F)c(F)c1 [Example 12, (4-Amino-2-phenylaminothiazol-5-yl)-(3,4-difluorophenyl)methanone] | < 5 µM
32 | Nc1nc(Nc2ccccc2)sc1C(=O)c1cccc(OCc2ccccc2)c1 [Example 16, (4-Amino-2-phenylaminothiazol-5-yl)-(3-benzyloxyphenyl)methanone] | < 5 µM
33 | Nc1nc(Nc2ccccc2)sc1C(=O)c1ccc([N+](=O)[O-])cc1 [Example 27, (4-Amino-2-phenylaminothiazol-5-yl)-(4-nitrophenyl)methanone] | < 5 µM
34 | CCC(=O)c1sc(Nc2ccccc2)nc1N [Example 11, 1-(4-Amino-2-phenylaminothiazol-5-yl)propan-1-one] | < 5 µM
